According to PMC11284788 (Journal of Medicinal Chemistry, 2024):

Test: general procedure: Fmoc solid-phase peptide synthesis; Rink amide resin; OxymaPure/DIC
Settings: whole synthesis, 214 nm, one disulfide bridge, sequence written open

Compared with “KCNTATCATQRLAEFLRHSSPNFGAIPSSTNVGSRTY-NH2 (cysteine pairing not given here)”, “KCNTATCATQRLADFLRHSSNPFGAPLSSTNVGSDTY-NH2 (cysteine pairing not given here)” is lower in “final HPLC purity” value: 100% for the first, 97.5% for the second.

“KCNTATCATQRLADFLRHSSPNFGAIPSSTNVGSRTY-amide” and “KCNTATCATQRLADFLRHSSPNFGAIPSSTNVGSDTY-NH2 (cysteine pairing not given here)” are the same in “final HPLC purity” value: 100% for the first, 100% for the second.

Ends that are not written are not given here.
